55 compounds from PubChem BioAssay AID1487 (National Center for Advancing Translational Sciences (NCATS), 2009) can be followed below.

The assay can be described thus: qHTS Assay for Modulators of Lamin A Splicing. Particulars: HeLa LMNA splicing GFP/RFP minigene ratio, 48 h. In short, it runs like this:
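Read-out is the ratio of GFP to DsRed2 object intensity, acquired by 488 nm laser-scanning cytometry on HeLa lamin A-EGFP minigene reporter cells. Compound incubation 48 hrs at 37 °C in Opti-MEM with 2% FBS; DMSO 0.5% final.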

[1] abbreviates: measured here: RFP viability control channel.
Where [2] appears, read: measured here: GFP splicing reporter channel.

Each structure is given as a SMILES string. This is one part of the list. Further columns of the screen follow, without active or inactive calls. Compounds called inactive in the main read-out are mostly missing here. Words in brackets tell the shape of the fitted curve; partial curves, single points and poor fits give uncertain potencies.

Consider `O=C(CNC(=O)c1cccc(Br)c1)N/N=C/c1cc(Br)cc(Br)c1O`, for which, under setting [1], the AC50 is 17.8 µM [rising, single point]. Regarding `Cc1cc(N2CCCC2=O)cc(C)c1S(=O)(=O)NCCOc1ccc(C(C)(C)C)cc1`, the AC50 under setting [1] was 14.1 µM [rising, single point]. As to `O=C(CNCC1CCCO1)N1CCCCCC1` (stereo not drawn), the AC50 was 11.2 µM [falling, partial curve, poor fit] under setting [2] and 0.126 µM [falling, full curve, poor fit] under setting [1].

Turning to `CCc1ccc(NS(=O)(=O)c2ccc3[nH]c4c(c3c2)CCCCCC4)cc1`, the half-maximal activity concentration (AC50) runs as follows: under setting [2], 12.6 µM [falling, partial curve]; under setting [1], 11.2 µM [falling, partial curve]. Turning to `O=C(CCCSc1nc2ccccc2[nH]1)NCc1ccc(Cl)cc1`, the AC50 was 12.6 µM [rising, single point] under setting [2] and 20 µM [rising, single point] under setting [1]. `COc1ccc(CN2CCN(C(=O)c3cccs3)CC2)cc1`: under setting [1], the AC50 was 35.5 µM [rising, single point]. For `C[C@@](N)(Cc1ccc(O)c(O)c1)C(=O)O`, the AC50 was 0.251 µM [falling, full curve] under setting [2] and 0.316 µM [falling, full curve, poor fit] under setting [1]. For the compound `Nc1c(-c2ccccc2)c(CSc2nc3ccccc3[nH]2)nn1-c1cccc(Cl)c1`, the concentration at half-maximal activity (AC50) under setting [1] was 3.55 µM [rising, full curve]. In the case of `O=C(NC(Nc1nc2ccc([N+](=O)[O-])cc2s1)(C(F)(F)F)C(F)(F)F)c1ccccc1`, the AC50 under setting [1] was 0.398 µM [rising, full curve]. The same measure, in the same setting: the result for `O=C(CSc1nc(Nc2ccc(F)c(F)c2)c2ccccc2n1)c1ccc(Cl)cc1` reads 11.2 µM [falling, partial curve, poor fit]; that for `O/N=C(\c1ccc(Cl)cc1)c1cc2ccccc2o1`, 35.5 µM [rising, single point]. With `N#CC1=C(N)N(c2ccccc2)C(c2ccccc2)C1(C#N)C#N` (stereo not drawn), the AC50 was 2.82 µM [rising, full curve] under setting [2] and 8.91 µM [rising, partial curve] under setting [1].

`CCOc1ncccc1C(=O)OCC(=O)c1ccc(F)cc1`: the half-maximal activity concentration (AC50) under setting [1] is 0.224 µM [rising, partial curve, poor fit]. Turning to `O=C1c2ccccc2NC2CCCCC12` (stereo not drawn), the AC50 by setting is: under setting [2], 35.5 µM [rising, single point]; under setting [1], 11.2 µM [rising, single point]. Consider `CC(C)NC(=O)c1onc(CSc2cccc(Cl)c2)c1C(=O)O`, for which the AC50 under setting [2] is 10 µM [falling, single point].

Consider `COc1ccc(-c2nc3cc(NC(=O)COc4ccc(F)cc4)ccc3o2)cc1`, for which, under setting [2], the AC50 is 1.41 µM [rising, full curve, poor fit]. For the compound `C/C(=N\N=C(/N)SC1CC(=O)N(c2ccc(Cl)c(Cl)c2)C1=O)c1cccs1` (stereo not drawn), the AC50 is 17.8 µM [falling, partial curve] under setting [2] and 22.4 µM [falling, partial curve] under setting [1]. Consider `Cc1ccc(Cl)c(OC(=O)Cn2cnc3c2c(=O)n(C)c(=O)n3C)c1`, for which the AC50 under setting [2] is 2.51 µM [rising, full curve] and the AC50 under setting [1] is 3.98 µM [rising, full curve, poor fit]. On to `Cc1cc(/C=N/NC(=O)C(=O)NCc2ccccn2)c(C)n1-c1cccc(Br)c1`, for which the AC50 runs as follows: under setting [2], 0.0562 µM [rising, full curve, poor fit]; under setting [1], 35.5 µM [rising, partial curve, poor fit]. On to `O=C(CCCCCCN1C(=O)c2ccccc2C1=O)N1CCC(c2ccccc2)C1` (stereo not drawn), for which the AC50 under setting [1] is 35.5 µM [rising, single point]. On to `COc1cc(-c2nc3cnccn3c2Nc2ccccc2)ccc1O`, for which the AC50 under setting [1] is 25.1 µM [rising, partial curve]. Regarding `CCOC(=O)N1CCC(NC(=O)c2cnn(-c3ccccc3)c2C2CCN(C(=O)OC(C)(C)C)CC2)CC1`, the AC50 under setting [2] is 0.0126 µM [falling, full curve] and the AC50 under setting [1] was 0.00316 µM [falling, full curve, poor fit]. As to `COc1ccc(-n2c(COc3cccc4ccccc34)nnc2SCC#N)cc1`, the AC50 under setting [1] is 35.5 µM [rising, single point]. On the same count and under the same terms, the value for `CCn1c(=N)c(C(=O)NCCCOC)cc2c(=O)n3cccc(C)c3nc21` was 10 µM [rising, partial curve]. Take `CS(=O)(=O)c1nc(-c2ccccc2)cc(-c2ccccc2)c1C#N`: the AC50 runs as follows: under setting [2], 12.6 µM [falling, partial curve]; under setting [1], 35.5 µM [falling, single point].

Regarding `Cc1ccc(C(=O)N2c3nc(-c4ccco4)nn3C3(CCCCC3)[C@@H]3CCCC[C@@H]32)cc1`, under setting [2], the AC50 was 15.8 µM [rising, partial curve, poor fit]. With `Cc1cccc(NC(=O)NNC(=O)c2c(Cl)c(C)nn2C)c1`, the half-maximal activity concentration (AC50) reads like this: under setting [2], 11.2 µM [rising, partial curve]; under setting [1], 17.8 µM [rising, single point].

On to `COC/C=C/C1=CC2=CC(=O)C(C)(OC(=O)c3cnc4ccccc4n3)C(=O)C2=CN1Cc1ccccc1` (stereo not drawn), for which, under setting [2], the AC50 was 0.000794 µM [rising, full curve, poor fit]. `COc1ccc(S(=O)(=O)N2CCc3ccccc32)cc1NC(C)=O`: under setting [1], the AC50 was 3.98 µM [rising, full curve]. As to `COc1cccc(N2CCN(C(=O)CN3CCSc4ccc(S(=O)(=O)N(C)C)cc43)CC2)c1`, the concentration at half-maximal activity (AC50) under setting [1] is 14.1 µM [rising, single point]. Turning to `COC(=O)c1ccc(OCC2c3cc(OC)c(OC)cc3CCN2C(=O)c2cccc(C)c2)cc1` (stereo not drawn), the AC50 under setting [2] was 22.4 µM [falling, partial curve, poor fit]. As to `CCOC(=O)/C(C#N)=C(C)/C=C1\Sc2ccccc2N1CC`, the AC50 was 28.2 µM [falling, single point] under setting [2] and 35.5 µM [falling, single point] under setting [1].

In the case of `CSc1ccc(-c2nnn(Cc3ccc(Br)cc3)n2)cc1`, under setting [1], the AC50 is 31.6 µM [rising, single point]. Regarding `O=C(C1CCN(c2nnc(-n3cccc3)s2)CC1)N1CCN(Cc2ccc3c(c2)OCO3)CC1`, under setting [1], the AC50 was 8.91 µM [rising, partial curve]. Same read-out and setting: the value for `COc1cccc(CNC(=O)Cn2c(=O)n3nc(-c4cccc(C)c4)nc3c3ccccc32)c1` was 14.1 µM [falling, partial curve]; that for `C=CCNc1ncnc2c1[nH]c1ccc(Cl)cc12` was 14.1 µM [rising, partial curve]. For the compound `CSc1ccc(S(=O)(=O)Nc2ccc3c(c2)OCCO3)cc1`, the AC50 is 11.2 µM [rising, partial curve, poor fit] under setting [2] and 15.8 µM [rising, partial curve] under setting [1]. Regarding `Cc1ccc(OCC(=O)Nc2cccc(S(=O)(=O)N3CCCCC3)c2)c([N+](=O)[O-])n1`, under setting [1], the AC50 was 8.91 µM [rising, partial curve]. On the same count and under the same terms, the result for `COc1cccc(-c2csc(N3CCN(Cc4ccccc4)CC3)n2)c1` reads 35.5 µM [rising, single point]. Turning to `COc1cccc([C@@H]2Oc3ccc(OC)cc3C(=O)[C@H]2OC(=O)Nc2cc(OC)c(OC)c(OC)c2)c1`, the AC50 under setting [1] is 25.1 µM [rising, single point].

Take `OC(CN1C2=NCCN2c2ccccc21)c1ccc(Br)cc1` (stereo not drawn): the AC50 is 22.4 µM [rising, single point] under setting [2] and 15.8 µM [rising, single point] under setting [1]. Take `O=C(OCC(=O)N1CCOCC1)c1ccc(N2CCOCC2)c([N+](=O)[O-])c1`: the AC50 under setting [1] is 0.0398 µM [falling, full curve, poor fit].

For `CCn1c(CNc2cccc(C(F)(F)F)c2)n[nH]c1=S`, the AC50 under setting [2] is 35.5 µM [falling, single point]. As to `CCNC(=S)NNC(=O)c1cc(-c2cccnc2)nc2ccccc12`, under setting [2], the AC50 is 8.91 µM [falling, partial curve, poor fit]. For `O=S1(=O)CC2N=C(N(Cc3ccc(F)cc3Cl)c3ccccc3F)SC2C1` (stereo not drawn), under setting [1], the AC50 was 3.16 µM [rising, partial curve].

In the case of `COc1ccc2cc(C(C)c3nc4ccccc4c(=O)n3N)ccc2c1` (stereo not drawn), the half-maximal activity concentration (AC50) by setting is: under setting [2], 11.2 µM [rising, single point]; under setting [1], 28.2 µM [rising, single point]. As for `O=C(Cc1c[nH]c2ccccc12)OCCOC(=O)Cc1c[nH]c2ccccc12`, the concentration at half-maximal activity (AC50) under setting [2] was 0.00562 µM [falling, full curve, poor fit] and the AC50 under setting [1] is 0.708 µM [falling, partial curve, poor fit]. Consider `Cc1ccnc(NC(=O)c2sc3ccccc3c2Cl)c1`, for which the concentration at half-maximal activity (AC50) under setting [2] is 0.0891 µM [rising, partial curve, poor fit]. Turning to `CCCCC1=CC2=C(c3ccco3)C(=O)C(C)(OC(=O)c3ccc(OC)cc3)C(=O)C2=CN1CCCCO` (stereo not drawn), the AC50 under setting [1] is 0.0562 µM [falling, partial curve, poor fit]. Consider `CCOc1ccc(CN(C)CC(=O)Nc2cc(C)c(C)cc2[N+](=O)[O-])cc1`, for which the AC50 under setting [2] is 8.91 µM [falling, partial curve].

For the compound `O=C(CN1CCN(c2ccccc2F)CC1)Nc1nnc(C(F)(F)F)s1`, under setting [1], the AC50 was 0.0224 µM [rising, full curve, poor fit]. `O=[N+]([O-])c1cc(Br)c(O)c(/C=N/Nc2nc3ccccc3s2)c1`: the AC50 under setting [2] was 0.0224 µM [falling, full curve, poor fit]. On to `CCCn1c(=S)[nH]c2cc(C(=O)N3CCc4ccccc43)ccc2c1=O`, for which the AC50 runs as follows: under setting [2], 1.12 µM [rising, partial curve]; under setting [1], 4.47 µM [rising, full curve].

On to `COC(=O)c1c(CCl)noc1C(=O)NCC1CCCO1` (stereo not drawn), for which the AC50 under setting [1] is 3.55 µM [falling, partial curve, poor fit].

In the case of `Cc1ccc(C)c(CN2CCC(CNC(=O)c3cc4ccc5cccnc5c4[nH]3)CC2)c1`, under setting [2], the AC50 is 8.91 µM [falling, partial curve].
